{
  "source": "PubChem BioAssay AID1347075",
  "about": "(National Center for Advancing Translational Sciences (NCATS), 2019)",
  "note": "Hit rate of the full screen: of about 400,000 compounds, about 5,500 (1.4%) were called active. This list was built around the results that the source calls inconclusive (neither active nor inactive); the mix of calls is not that of the screen. Calls follow the shape of the dose curve; as a rule, active = well fitted cell-killing curve with a large enough effect; inconclusive = small, poorly fitted or top-dose-only effect, or effect the other way; inactive = flat fitted curve, though single readings scatter. Potencies of inconclusive entries are doubtful fits and often do not repeat. % is scaled to controls: 0 for no effect and ±100 for the full control effect; potency is read from the fitted curve at half-maximal effect.",
  "data": [
    {"test": "qHTS assay for MDR1-selective chemotherapeutics: Primary screen using the parental adenocarcinoma cell KB-3-1; also: nearly all actives have a fitted effect of over 60% in size", "conditions": "KB-3-1 viability, CellTiter-Glo ATP luminescence, 72 h; activity change, negative = cytotoxic: at 46.1 µM (top of the series)", "in_short": "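KB-3-1 parental drug-naive adenocarcinoma cells in DMEM/10% FBS, incubated 72 h at 37 C with pin-transferred compounds across a concentration series. Viability by CellTiter-Glo luminescence; concentration-response curves fitted after normalization.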", "values": [
      {"smiles": "Cc1ccccc1C(=O)NNS(=O)(=O)c1cccc([N+](=O)[O-])c1", "activity change, negative = cytotoxic": "inactive: -6.94%"},
      {"smiles": "Nc1ccc(N2CCN(c3ncc(C(F)(F)F)cc3Cl)CC2)c(C(F)(F)F)c1", "Potency": "inconclusive: 20.6 µM [cytotoxic, single point]"},
      {"smiles": "CN1CC(=O)N(CC(=O)Nc2cccc(S(=O)(=O)N3CCOCC3)c2)C1=O", "activity change, negative = cytotoxic": "inactive: 3.86%"},
      {"smiles": "CC(Oc1ccc(Cl)cc1Cl)C(=O)Nc1ccc(N2CCN(C)CC2)cc1", "note": "(stereo not drawn)", "Potency": "inconclusive: 23.1 µM [cytotoxic, single point]"},
      {"smiles": "CN(CCCS(=O)(=O)[O-])c1ccc(/C=C/c2ccc3ccccc3[n+]2C)cc1", "activity change, negative = cytotoxic": "inconclusive: -6.67%"},
      {"smiles": "CC1(C)CC(=O)C2=C(C1)Nc1ccccc1NC2c1ccc([N+](=O)[O-])cc1", "note": "(stereo not drawn)", "activity change, negative = cytotoxic": "inconclusive: 0%"},
      {"smiles": "COc1ccc(NC(=O)/C(Cl)=C(/Cl)S(=O)(=O)Cc2ccccc2)cn1", "Potency": "inconclusive: 13 µM [cytotoxic, partial curve, poor fit]"},
      {"smiles": "CCOC(=O)CC(c1ccc([N+](=O)[O-])cc1)n1c(C)ccc1C", "note": "(stereo not drawn)", "activity change, negative = cytotoxic": "inactive: 9.12%"},
      {"smiles": "C/C(CC(=O)Nc1ccccn1)=N\\NC(=O)c1ccccc1O", "Potency": "inconclusive: 5.17 µM [cytotoxic, partial curve, poor fit]"},
      {"smiles": "O=C(OCc1ccccc1)N1CCCC2CC1c1ccccc12", "note": "(stereo not drawn)", "activity change, negative = cytotoxic": "inactive: 3.61%"},
      {"smiles": "CCCCC(=O)Nc1cccc(NC(=O)c2ccc3c(c2)OCO3)c1", "activity change, negative = cytotoxic": "inactive: 0.93%"},
      {"smiles": "CCSc1nnc(NC(=O)CSc2nc3c(c(=O)n2CC)SC(C)C3)s1", "note": "(stereo not drawn)", "Potency": "active: 6.51 µM"},
      {"smiles": "CCOc1ccc(N2CC(c3nc4ccccc4n3CCCOc3ccccc3)CC2=O)cc1", "note": "(stereo not drawn)", "activity change, negative = cytotoxic": "inactive: -15.2%"},
      {"smiles": "CCCCOc1ccc(C(=O)Oc2cc(C)[nH]c(=O)c2[N+](=O)[O-])cc1", "activity change, negative = cytotoxic": "inactive: 2.17%"},
      {"smiles": "Cc1c(C(=O)NCC(c2ccc(Cl)cc2)N2CCOCC2)oc2ccccc12", "note": "(stereo not drawn)", "activity change, negative = cytotoxic": "inactive: 2.74%"},
      {"smiles": "CC(=O)CC1c2ccccc2C=C(c2ccsc2)N1c1ccc(-c2cccs2)cc1", "note": "(stereo not drawn)", "Potency": "inconclusive: 20.6 µM [cytotoxic, single point]"},
      {"smiles": "Cc1ccc(CN2CCC(CNC(=O)Nc3ccc(Cl)cc3)C2)cc1", "note": "(stereo not drawn)", "activity change, negative = cytotoxic": "inactive: 7.56%"},
      {"smiles": "CC(C)(C)OC(=O)N1CCC(c2c(C(=O)NCCN3CCc4ccccc4C3)cnn2-c2ccc(F)cc2F)CC1", "activity change, negative = cytotoxic": "inactive: 1.31%"},
      {"smiles": "O=C(OC1CCOC1=O)c1ccc(N2CCCC2)c([N+](=O)[O-])c1", "note": "(stereo not drawn)", "activity change, negative = cytotoxic": "inconclusive: 4.51%"},
      {"smiles": "CC1(C)CC(=O)C=C(c2ccc(-c3ccc4[nH]ccc4c3)cc2)C1=O", "Potency": "active: 8.2 µM"},
      {"smiles": "CCn1nc(NC(=O)c2cccnc2)c2cc3ccccc3nc21", "Potency": "inconclusive: 3.26 µM [rising, full curve]"},
      {"smiles": "c1ccc(CCNc2cnccn2)cc1", "activity change, negative = cytotoxic": "inactive: 3.66%"},
      {"smiles": "COc1cccc(N2CCN(CC(=O)Nc3ccccc3C(=O)NCCc3ccccc3)CC2)c1", "Potency": "inconclusive: 20.6 µM [cytotoxic, single point]"}
    ]}
  ]
}
